Source: patent US10973831B2, “Fluoropiperidine compounds as pure 5-HT 6 receptor antagonists” (SUVEN LIFE SCIENCES LIMITED, priority 2017, dated 2021)

Test system: extracellular levels of acetylcholine in ventral hippocampus
Assay: Acetylcholine modulation in ventral hippocampus (microdialysis)
Assay type: in vivo, male Wistar rats
Settings: donepezil 1 mg/kg, s.c. alone
Source text: Four groups of male Wistar rats (240-300 g body weight) were stereotaxically implanted with a microdialysis guide cannula in ventral hippocampus (AP: −5.2 mm, ML: +5.0 mm, DV: −3.8 mm) under isoflurane anesthesia. Co-ordinates were taken according to atlas for the rat brain (Paxinos and Watson 2004) with reference points taken from bregma and vertical from the skull. […] After surgical recovery of 4-5 days, male Wistar rats were connected to dual quartz lined two-channel liquid swivel (Instech, UK) on a counter balance lever arm, which allowed unrestricted movements of the animal. […] On the day of study, probe was perfused with artificial cerebrospinal fluid (aCSF; NaCl 147 mM, KC13 mM, MgCl2 1 mM, CaCl2. 2H2O 1.3 mM, NaH2PO4.2H2O 0.2 mM and Na2HPO4.7H2O 1 mM, pH 7.2) at a flow rate of 1.5 μL/min and a stabilization period of 2 h was maintained. […] For two groups of the male Wistar rats, donepezil (1 mg/kg, s.c.) was administered 30 min after administration of example 1 and for another group of rats donepezil (1 mg/kg, s.c.)+memantine (1 mg/kg, s.c.) combination administered 30 min after administration of example 1. Dialysate samples were collected for an additional period of 4 h post treatment of example 1. Dialysates were stored below −50° C. prior to analysis. Acetylcholine in dialysate was quantified using LC-MS/MS method in the calibration range of 0.099 nmol/L-70.171 nmol/L. […]

With `COc1cc2c(cc1OC)C(=O)C(CC1CCN(Cc3ccccc3)CC1)C2` (stereo not shown) [donepezil, reference compound] the “hippocampal acetylcholine levels, maximum, % of basal levels” value was 888±85%.
